Assay [1] addresses GST-fused full-length GTSF2 (mouse) (UniProt Q80Y74). Put plainly: pull-down; as a1, but testis lysate treated with 40 U/ml RNase A; only the target purified.
Assay [2] has the same target. Put plainly: pull-down; GST-fusion protein on Glutathione Sepharose 4B beads; mouse testis lysate, untreated, 2 h at 4°C; binding buffer 20 mM Tris-HCl pH 7.5, 150 mM NaCl, 0.1% NP40; western blotting of the bound fraction; only the target purified. (In general: In western blotting, separated proteins are transferred to a membrane and probed.)
Assay [3] has as its target GST-fused GTSF2 N-terminal region (ZnF) (mouse). Described as above.

Chains of the proteins cited; added tags and fusions are not shown. Lines headed by an entry give the natural chain unless they say otherwise; changes in a name come on top.
UniProt Q80Y74: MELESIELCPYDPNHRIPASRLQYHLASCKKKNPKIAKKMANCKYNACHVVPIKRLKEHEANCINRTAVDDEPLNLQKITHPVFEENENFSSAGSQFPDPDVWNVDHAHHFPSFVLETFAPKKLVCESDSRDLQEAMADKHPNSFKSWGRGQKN
UniProt Q9JMB7: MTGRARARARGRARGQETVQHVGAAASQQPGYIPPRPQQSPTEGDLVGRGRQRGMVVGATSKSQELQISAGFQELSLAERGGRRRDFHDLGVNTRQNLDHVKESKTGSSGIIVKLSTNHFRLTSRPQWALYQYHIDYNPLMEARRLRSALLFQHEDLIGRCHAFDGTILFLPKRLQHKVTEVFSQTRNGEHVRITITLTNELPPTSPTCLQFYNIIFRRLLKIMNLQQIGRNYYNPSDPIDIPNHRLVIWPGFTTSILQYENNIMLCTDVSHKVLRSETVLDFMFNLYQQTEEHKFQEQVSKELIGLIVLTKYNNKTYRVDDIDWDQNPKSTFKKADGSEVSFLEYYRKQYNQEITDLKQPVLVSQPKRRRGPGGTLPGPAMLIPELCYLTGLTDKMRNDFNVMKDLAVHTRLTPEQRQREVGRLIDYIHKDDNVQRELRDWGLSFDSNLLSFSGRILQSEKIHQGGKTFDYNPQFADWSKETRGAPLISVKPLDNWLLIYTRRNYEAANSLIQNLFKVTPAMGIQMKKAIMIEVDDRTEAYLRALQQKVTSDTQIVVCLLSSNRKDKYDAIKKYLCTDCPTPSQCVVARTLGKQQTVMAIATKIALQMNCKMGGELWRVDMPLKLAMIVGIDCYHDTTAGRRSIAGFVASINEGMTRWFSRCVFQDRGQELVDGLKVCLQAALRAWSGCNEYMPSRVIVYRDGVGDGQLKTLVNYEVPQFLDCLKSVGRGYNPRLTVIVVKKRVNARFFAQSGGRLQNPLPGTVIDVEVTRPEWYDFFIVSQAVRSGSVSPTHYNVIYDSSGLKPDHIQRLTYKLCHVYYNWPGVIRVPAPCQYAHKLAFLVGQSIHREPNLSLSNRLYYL
UniProt P61407: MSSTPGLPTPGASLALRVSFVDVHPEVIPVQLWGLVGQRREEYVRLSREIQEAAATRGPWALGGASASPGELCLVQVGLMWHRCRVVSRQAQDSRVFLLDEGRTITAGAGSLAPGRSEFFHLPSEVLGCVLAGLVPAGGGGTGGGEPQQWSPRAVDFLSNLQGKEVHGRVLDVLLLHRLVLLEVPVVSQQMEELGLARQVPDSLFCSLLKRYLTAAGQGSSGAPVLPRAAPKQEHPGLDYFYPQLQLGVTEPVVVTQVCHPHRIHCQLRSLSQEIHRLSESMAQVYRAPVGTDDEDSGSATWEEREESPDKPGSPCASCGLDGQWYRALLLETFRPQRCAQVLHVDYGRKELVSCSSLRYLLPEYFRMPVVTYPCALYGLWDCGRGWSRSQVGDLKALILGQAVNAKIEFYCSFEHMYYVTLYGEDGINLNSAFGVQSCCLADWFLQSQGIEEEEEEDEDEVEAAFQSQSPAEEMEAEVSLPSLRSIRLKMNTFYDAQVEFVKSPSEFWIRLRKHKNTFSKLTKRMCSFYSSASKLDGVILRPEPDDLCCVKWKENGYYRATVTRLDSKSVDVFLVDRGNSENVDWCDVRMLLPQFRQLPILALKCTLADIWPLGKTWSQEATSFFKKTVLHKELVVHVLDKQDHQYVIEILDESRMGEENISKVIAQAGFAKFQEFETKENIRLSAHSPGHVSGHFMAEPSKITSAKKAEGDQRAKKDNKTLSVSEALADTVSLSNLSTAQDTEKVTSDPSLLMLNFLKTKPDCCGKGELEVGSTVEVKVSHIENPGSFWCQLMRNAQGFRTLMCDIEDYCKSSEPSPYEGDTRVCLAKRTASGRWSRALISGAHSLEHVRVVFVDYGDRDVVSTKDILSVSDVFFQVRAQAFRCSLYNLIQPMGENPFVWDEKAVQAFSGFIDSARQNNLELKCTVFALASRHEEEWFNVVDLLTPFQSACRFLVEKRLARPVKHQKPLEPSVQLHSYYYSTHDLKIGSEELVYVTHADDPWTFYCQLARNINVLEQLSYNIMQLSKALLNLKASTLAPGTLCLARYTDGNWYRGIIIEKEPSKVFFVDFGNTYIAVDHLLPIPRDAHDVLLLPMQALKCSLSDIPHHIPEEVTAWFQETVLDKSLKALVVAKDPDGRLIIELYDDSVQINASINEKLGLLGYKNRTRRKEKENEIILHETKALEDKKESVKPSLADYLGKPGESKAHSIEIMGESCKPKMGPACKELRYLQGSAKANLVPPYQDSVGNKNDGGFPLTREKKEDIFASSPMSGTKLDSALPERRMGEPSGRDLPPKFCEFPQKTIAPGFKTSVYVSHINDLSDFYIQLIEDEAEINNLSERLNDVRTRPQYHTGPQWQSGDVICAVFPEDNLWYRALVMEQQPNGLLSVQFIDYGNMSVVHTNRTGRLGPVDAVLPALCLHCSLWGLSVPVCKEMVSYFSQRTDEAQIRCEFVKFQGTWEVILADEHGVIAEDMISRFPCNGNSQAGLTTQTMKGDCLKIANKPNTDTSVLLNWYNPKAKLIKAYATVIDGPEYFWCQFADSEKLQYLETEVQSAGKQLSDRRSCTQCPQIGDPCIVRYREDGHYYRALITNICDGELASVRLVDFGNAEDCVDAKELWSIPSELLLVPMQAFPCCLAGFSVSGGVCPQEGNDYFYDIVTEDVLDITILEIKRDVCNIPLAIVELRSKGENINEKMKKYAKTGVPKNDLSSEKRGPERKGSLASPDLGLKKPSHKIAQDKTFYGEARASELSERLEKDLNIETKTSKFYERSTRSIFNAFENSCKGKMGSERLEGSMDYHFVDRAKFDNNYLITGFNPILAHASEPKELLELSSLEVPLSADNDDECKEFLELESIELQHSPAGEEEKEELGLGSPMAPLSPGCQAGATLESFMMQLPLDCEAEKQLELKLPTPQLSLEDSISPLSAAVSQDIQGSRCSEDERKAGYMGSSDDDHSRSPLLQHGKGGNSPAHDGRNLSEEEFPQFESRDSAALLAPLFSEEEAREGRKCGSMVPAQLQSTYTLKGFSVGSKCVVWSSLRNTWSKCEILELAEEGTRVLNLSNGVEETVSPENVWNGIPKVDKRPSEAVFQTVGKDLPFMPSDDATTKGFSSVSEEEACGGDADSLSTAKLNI

No constants are given. Whether binding was seen depends on the method and setting. Binding seen in cells or lysates may run through a third protein. A result given as binding can be weak or reduced; the word gives no strength.

As to MIWI (from UniProt Q9JMB7 1-862), the binding result in assay [1] and in assay [2] was “binds” throughout.

TDRD6 (from UniProt P61407 1-2134): the binding result in assay [2] is “no binding”.

B1: TDRD1 (protein, UniProt Q99MV1 1-1172)
chain: MMPRNNLEASTCKMAEPFNFEKKESKPPPQDPLRSPVAQHNHPTFRLKSPENGNTKNNFLLCEQNKQYLASQEDSSVVSSNPAVVNGEVGGSKGDRKPPPTGNPVSPLSLGNSSPPNQVKTKPSSNVTPEKSKKSHKLFENALSVNNPALFNSLGPPLRSTTCHRCGLFGSLRCSQCKQTYYCSTACQRRDWSSHSTICRPVQQSLNKLEDNKSPFETKAIEVKSEVDCPPGVTKEITAGAERVMFSDLRSLQLKKTMEIKGTVTEFKHPSNFYIQLYSSEVLENMNQLSTSLKETYANVVPEDGYLPVKGEVCVAKYTVDQTWNRAIVQAVDVLQRKAHVLYIDYGNEEMIPIDSVHPLSRGLDLFPPSAIKCCVSGVIPTAGEWSEGCVAAVKALLFEQFCSVKVMDILEEEVLTCAVDLVLQSSGKQLDHVLVEMGYGVKPGEQSSTEQSVDHSALEDVGRVTVESKIVTDRNALIPKVLTLNVGDEFCGVVAHIQTPEDFFCQQLQSGHKLAELQESLSEYCGHVIPRSDFYPTIGDVCCAQFSEDDQWYRASVLAYASEESVLVGYVDYGNFEILSLKRLCPIIPKLLDLPMQALNCVLAGVKPSLGIWTPEAVCVMKEMVQNRMVTVRVVGMLGTRALVELIDKSVAPHVSASKALIDSGFAIKEKDVADKGSSMHTASVPLAIEGPAEALEWTWVEFTVDETVDVVVCMMYSPGEFYCHFLKDDALEKLDDLNQSLADYCAQKPPNGFKAEIGRPCCAFFSGDGNWYRALVKEILPSGNVKVHFVDYGNVEEVTTDQLQAILPQFLLLPFQGMQCWLVDIQPPNKHWTKEATARFQACVVGLKLQARVVEITANGVGVELTDLSTPYPKIISDVLIREQLVLRCGSPQDSLMSRPANQHKQIDSHRVQASPSAEQWKTMELPVNKTIAANVLEIISPALFYAIPSEMSENQEKLCVLAAELLEHCNAQKGQPAYRPRTGDACCAKYTNDDFWYRAIVLETSESDVKVLYADYGNIETLPLSRVQPIPASHLELPFQIIRCSLEGPMELNGSCSQLVMELLRNAMLNQSVVLSVKAISKNVHAVSVEKCSENGMINIAENLVMCGLAENLTSKRKSASTKEIPHSRDCCCTELQKQIEKHEQILLFLLNNPTNQSKFTEMKKLLRS
B1: the binding result in assay [1], in assay [2] and in assay [3] was “binds” each time.
